Experimental data from patent EP0791603A2 (American Cyanamid Company, priority 1996, dated 1997).
HELM strings list residues between dots; [ac] is acetyl, [am] amide, other brackets name non-standard units.

Assay: general procedure: Fmoc solid-phase peptide synthesis in flow; Fmoc-PAL-PEG-resin; BOP/HOBT/diisopropylethylamine
Details: whole synthesis, scale 0.3 mmole

Q: With “PEPTIDE1{[4-NO2Phe].[dC].Y.[dW].K.V.C.[N(CH3)Ala].[am]}$PEPTIDE1,PEPTIDE1,2:R3-7:R3$$$V2.0” as the substance, how does the isolated mass read?
A: The isolated mass was 31 mg.
